# Cleaved PARP after 72 h of treatment

Source: doi:10.1371/journal.pone.0140310, primary screening data, rounded.

First drug in all entries: gemcitabine, 0.002 µM, Nc1ccn([C@@H]2O[C@H](CO)[C@@H](O)C2(F)F)c(=O)n1

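Human melanoma cell lines in 1,536-well plates were treated with two drugs together for 72 h, then fixed, stained and imaged. Values are the share of nuclei positive for cleaved PARP as a percentage of the same share in the DMSO control: 100 is the control level, higher means more apoptosis. Every drug was used at one fixed concentration, the higher of two screened. No replicate spread is given; individual values may be noisy. Basal and induced levels differ widely between cell lines.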
An unselected part of the screen is shown.

CC(C)CCN1c2nc(Nc3cc(F)c(O)c(F)c3)ncc2N(C)C(=O)C1C (centres undefined) at 1 µM gave WM115: 111; WM3619: 154. With CC(C)C[C@H](NC(=O)[C@H](Cc1ccccc1)NC(=O)c1cnccn1)B(O)O at 0.005 µM the screen read WM115: 4280; WM3619: 2260. With Oc1cc(-c2nc(-c3ccccc3)[nH]c2-c2ccncc2)ccc1Cl at 1 µM the screen read WM115: 49.2; WM3619: 238.

With O=C(Nc1cccc(Cl)c1)Nc1ncc(CCNc2ncnc3ccsc23)s1 at 0.004 µM the screen read WM115: 141; WM3619: 182. For NC1(c2ccc(-c3nc4ccn5c(=O)[nH]nc5c4cc3-c3ccccc3)cc2)CCC1 at 2 µM the values were WM115: 175; WM3619: 230. With O=c1cc(-c2cccc3c2Sc2ccccc2S3)oc(N2CCOCC2)c1 at 5 µM the screen read WM115: 171; WM3619: 225.

With CN(NC(=O)CC(=O)NN(C)C(=S)c1ccccc1)C(=S)c1ccccc1 at 0.03 µM the screen read WM115: 649; WM3619: 1600. For CC[C@]1(O)C[C@H]2CN(CCc3c([nH]c4ccccc34)[C@@](C(=O)OC)(c3cc4c(cc3OC)N(C=O)[C@H]3[C@@](O)(C(=O)OC)[C@H](OC(C)=O)[C@]5(CC)C=CCN6CC[C@]43[C@@H]65)C2)C1 at 0.0005 µM the values were WM115: 199; WM3619: 168. For Nc1cccc2c1CN(C1CCC(=O)NC1=O)C2=O (centres undefined) at 5 µM the values were WM115: 530; WM3619: 139.

CCc1ccc(CCOc2ccc(CC3SC(=O)NC3=O)cc2)nc1 (centres undefined) at 10 µM gave WM115: 132; WM3619: 459. For COc1ccc2c(c1)CCC1C2CCC2(C)C(NCCCCCCN3C(=O)C=CC3=O)CCC12 (centres undefined) at 2 µM the values were WM115: 148; WM3619: 214. For COc1cc([C@@H]2c3cc4c(cc3[C@@H](O[C@@H]3O[C@@H]5CO[C@@H](C)O[C@H]5[C@H](O)[C@H]3O)[C@H]3COC(=O)[C@H]23)OCO4)cc(OC)c1O at 0.1 µM the values were WM115: 116; WM3619: 176.

For CCCCCCCCCCCCCCCCCCOP(=O)([O-])OC1CC[N+](C)(C)CC1 at 2 µM the values were WM115: 27.8; WM3619: 166. Results for C=CCn1c(=O)c2cnc(Nc3ccc(N4CCN(C)CC4)cc3)nc2n1-c1cccc(C(C)(C)O)n1 at 0.1 µM are WM115: 1170; WM3619: 201. Results for Cn1c(=O)n(-c2ccc(C(C)(C)C#N)cc2)c2c3cc(-c4cnc5ccccc5c4)ccc3ncc21 at 0.02 µM are WM115: 295; WM3619: 169.

For CO[C@H]1C[C@@H]2CC[C@@H](C)[C@@](O)(O2)C(=O)C(=O)N2CCCC[C@H]2C(=O)O[C@H]([C@H](C)C[C@@H]2CC[C@@H](OCCO)[C@H](OC)C2)CC(=O)[C@H](C)/C=C(\C)[C@@H](O)[C@@H](OC)C(=O)[C@H](C)C[C@H](C)/C=C/C=C/C=C/1C at 0.1 µM the values were WM115: 189; WM3619: 205. NC(=O)c1ccc(N(C(N)=O)c2c(F)cccc2F)nc1-c1ccc(F)cc1F at 2 µM gave WM115: 169; WM3619: 278. With Clc1ccc(Nc2nnc(Cc3ccncc3)c3ccccc23)cc1 at 10 µM the screen read WM115: 129; WM3619: 216.

For CCCS(=O)(=O)Nc1ccc(F)c(C(=O)c2c[nH]c3ncc(Cl)cc23)c1F at 0.4 µM the values were WM115: 63.5; WM3619: 177. C#Cc1cccc(Nc2ncnc3cc(OCCOC)c(OCCOC)cc23)c1 at 4 µM gave WM115: 195; WM3619: 179. With O=C(/C=C/c1cccnc1)NCCCCC1CCN(C(=O)c2ccccc2)CC1 at 0.05 µM the screen read WM115: 86.0; WM3619: 181.

With CC1(C)CCC(c2ccc(Cl)cc2)=C(CN2CCN(c3ccc(C(=O)NS(=O)(=O)c4ccc(N[C@H](CCN5CCOCC5)CSc5ccccc5)c(S(=O)(=O)C(F)(F)F)c4)cc3)CC2)C1 at 2 µM the screen read WM115: 434; WM3619: 315. For CC(=O)c1c(C)c2cnc(Nc3ccc(N4CCNCC4)cn3)nc2n(C2CCCC2)c1=O at 0.2 µM the values were WM115: 262; WM3619: 119. COc1ccc(-c2ccc3c(N4CCOCC4)nc(N4C[C@@H](C)O[C@@H](C)C4)nc3n2)cc1CO at 0.1 µM gave WM115: 141; WM3619: 349.

For CN1CCN(c2ccc3nc(-c4c(N)c5c(F)cccc5[nH]c4=O)[nH]c3c2)CC1 at 0.5 µM the values were WM115: 308; WM3619: 232. With C[As](C)SC[C@H](NC(=O)CC[C@H](N)C(=O)O)C(=O)NCC(=O)O at 2 µM the screen read WM115: 113; WM3619: 174. O=C(CCCCCCC(=O)Nc1ccccc1)NO at 0.4 µM gave WM115: 144; WM3619: 243.

With CS(=O)(=O)CCNCc1ccc(-c2ccc3ncnc(Nc4ccc(OCc5cccc(F)c5)c(Cl)c4)c3c2)o1 at 4 µM the screen read WM115: 182; WM3619: 136. For Cn1cc(C2=C(c3cn(C4CCN(Cc5ccccn5)CC4)c4ccccc34)C(=O)NC2=O)c2ccccc21 at 4 µM the values were WM115: 35.5; WM3619: 162. For OCCn1cc(-c2cnc3nnn(Cc4ccc5ncccc5c4)c3n2)cn1 at 5 µM the values were WM115: 78.7; WM3619: 170.

Results for COc1cc(N2CCC(N3CCN(C)CC3)CC2)ccc1Nc1ncc(Cl)c(Nc2ccccc2S(=O)(=O)C(C)C)n1 at 0.4 µM are WM115: 165; WM3619: 189. Results for COC(=O)c1sccc1S(=O)(=O)Nc1ccc(Nc2ccccc2)cc1OC at 5 µM are WM115: 178; WM3619: 226. For Nc1ncn([C@H]2C[C@H](O)[C@@H](CO)O2)c(=O)n1 at 0.5 µM the values were WM115: 145; WM3619: 188.

For COc1cc(Nc2ncc(F)c(Nc3ccc4c(n3)NC(=O)C(C)(C)O4)n2)cc(OC)c1OC at 2 µM the values were WM115: 43.3; WM3619: 115. C/C(O)=C(\C#N)C(=O)Nc1cc(Br)ccc1Br at 10 µM gave WM115: 109; WM3619: 212.

Some entries from above, unchanged:

| Second drug | WM115 | WM3619 |
|---|---|---|
| COC(=O)c1sccc1S(=O)(=O)Nc1ccc(Nc2ccccc2)cc1OC at 5 µM | 178 | 226 |
| C[As](C)SC[C@H](NC(=O)CC[C@H](N)C(=O)O)C(=O)NCC(=O)O at 2 µM | 113 | 174 |